Assay results published in US4880014A, “Method for determining therapeutic drug dosage using bioelectrical resistance and reactance measurements” (priority 1988, dated 1989).

Experiment: Theophylline pharmacokinetics in fifteen normal adult males from serum concentrations (Lagran), and dose calculated from measured Cl
Format: in vivo, human
Conditions: mean of fifteen subjects; Q8; column G
Description: Fifteen normal adult males were used in the following study. Each subject was given a single intravenous dosage of theophylline.
Serial blood samples were obtained, for all fifteen patients, from an intravenous catheter placed in the arm.
F=1.0, assuming 100% oral absorption

Cn1c(=O)c2[nH]cnc2n(C)c1=O [theophylline]
Dose Calculation from Measured Cl, Dose/T, MEAN: 251 mg/8 hour
